Results as given in the supplement of paper PMC10849652.
This is one part of the list.

By UniProt entry, the sequences of proteins in these tests, tags left out. Where a name states a change or a piece, a line headed by the entry shows the natural chain unless it says otherwise.
UniProt P36405: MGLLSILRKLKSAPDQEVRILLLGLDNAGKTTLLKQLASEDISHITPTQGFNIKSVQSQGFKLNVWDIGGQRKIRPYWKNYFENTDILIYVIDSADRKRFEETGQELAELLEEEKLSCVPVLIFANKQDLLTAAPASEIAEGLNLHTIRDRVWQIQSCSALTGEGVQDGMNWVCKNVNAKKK
UniProt Q9Y2Y0: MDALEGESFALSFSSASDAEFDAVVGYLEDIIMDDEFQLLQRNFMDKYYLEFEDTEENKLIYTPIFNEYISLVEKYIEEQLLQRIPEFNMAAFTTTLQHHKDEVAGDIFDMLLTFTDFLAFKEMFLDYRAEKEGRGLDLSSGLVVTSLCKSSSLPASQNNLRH
UniProt Q13795: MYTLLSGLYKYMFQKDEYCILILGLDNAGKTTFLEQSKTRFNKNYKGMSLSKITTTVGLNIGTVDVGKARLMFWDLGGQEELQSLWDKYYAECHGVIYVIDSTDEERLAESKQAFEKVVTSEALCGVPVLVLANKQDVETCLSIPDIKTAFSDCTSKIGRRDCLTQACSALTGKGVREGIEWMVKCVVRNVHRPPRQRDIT
UniProt Q14155: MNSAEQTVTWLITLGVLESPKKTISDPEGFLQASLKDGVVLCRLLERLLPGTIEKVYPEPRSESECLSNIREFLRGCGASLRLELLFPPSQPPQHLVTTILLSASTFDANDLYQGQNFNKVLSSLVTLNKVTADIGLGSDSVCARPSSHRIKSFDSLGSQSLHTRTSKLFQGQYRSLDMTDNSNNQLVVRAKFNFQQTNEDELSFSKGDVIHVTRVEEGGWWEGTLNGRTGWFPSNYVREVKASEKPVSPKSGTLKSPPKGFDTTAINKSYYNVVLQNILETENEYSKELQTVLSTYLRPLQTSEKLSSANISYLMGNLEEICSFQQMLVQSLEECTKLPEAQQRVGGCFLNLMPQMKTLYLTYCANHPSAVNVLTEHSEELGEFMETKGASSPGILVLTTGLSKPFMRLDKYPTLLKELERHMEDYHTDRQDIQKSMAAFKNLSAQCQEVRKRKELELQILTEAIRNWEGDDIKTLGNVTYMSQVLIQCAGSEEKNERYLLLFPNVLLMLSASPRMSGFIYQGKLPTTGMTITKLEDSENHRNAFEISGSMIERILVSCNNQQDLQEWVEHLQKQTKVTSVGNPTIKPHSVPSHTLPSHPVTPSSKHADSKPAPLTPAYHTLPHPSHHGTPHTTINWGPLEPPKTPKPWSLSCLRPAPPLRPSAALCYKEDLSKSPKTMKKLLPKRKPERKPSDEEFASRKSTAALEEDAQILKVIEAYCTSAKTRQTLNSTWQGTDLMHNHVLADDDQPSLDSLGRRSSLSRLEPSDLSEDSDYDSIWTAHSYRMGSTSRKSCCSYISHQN
UniProt P53367: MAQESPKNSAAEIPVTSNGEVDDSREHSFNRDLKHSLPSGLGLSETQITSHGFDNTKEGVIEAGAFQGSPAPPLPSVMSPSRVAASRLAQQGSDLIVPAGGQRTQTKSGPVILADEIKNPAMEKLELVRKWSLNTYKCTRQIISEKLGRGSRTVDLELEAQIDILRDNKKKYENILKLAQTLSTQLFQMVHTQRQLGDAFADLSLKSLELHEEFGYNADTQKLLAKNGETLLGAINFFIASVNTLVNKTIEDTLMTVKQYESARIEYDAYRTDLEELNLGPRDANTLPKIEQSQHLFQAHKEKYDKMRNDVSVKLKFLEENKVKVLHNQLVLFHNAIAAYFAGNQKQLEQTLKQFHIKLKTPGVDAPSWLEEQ
UniProt Q8N6T3: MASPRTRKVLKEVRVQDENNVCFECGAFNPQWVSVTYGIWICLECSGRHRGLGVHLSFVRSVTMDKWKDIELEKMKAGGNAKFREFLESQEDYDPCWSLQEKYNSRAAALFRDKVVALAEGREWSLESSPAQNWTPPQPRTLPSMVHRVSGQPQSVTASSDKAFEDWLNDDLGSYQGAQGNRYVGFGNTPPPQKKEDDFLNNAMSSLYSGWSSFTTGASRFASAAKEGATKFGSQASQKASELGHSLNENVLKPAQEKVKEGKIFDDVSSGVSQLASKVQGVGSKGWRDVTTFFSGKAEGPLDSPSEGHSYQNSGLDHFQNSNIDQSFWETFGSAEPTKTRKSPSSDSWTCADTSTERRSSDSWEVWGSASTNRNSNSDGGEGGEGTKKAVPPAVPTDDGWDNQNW
UniProt P02656: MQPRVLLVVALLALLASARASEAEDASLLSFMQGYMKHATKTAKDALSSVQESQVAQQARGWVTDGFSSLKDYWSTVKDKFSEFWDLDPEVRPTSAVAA
UniProt Q8IW19: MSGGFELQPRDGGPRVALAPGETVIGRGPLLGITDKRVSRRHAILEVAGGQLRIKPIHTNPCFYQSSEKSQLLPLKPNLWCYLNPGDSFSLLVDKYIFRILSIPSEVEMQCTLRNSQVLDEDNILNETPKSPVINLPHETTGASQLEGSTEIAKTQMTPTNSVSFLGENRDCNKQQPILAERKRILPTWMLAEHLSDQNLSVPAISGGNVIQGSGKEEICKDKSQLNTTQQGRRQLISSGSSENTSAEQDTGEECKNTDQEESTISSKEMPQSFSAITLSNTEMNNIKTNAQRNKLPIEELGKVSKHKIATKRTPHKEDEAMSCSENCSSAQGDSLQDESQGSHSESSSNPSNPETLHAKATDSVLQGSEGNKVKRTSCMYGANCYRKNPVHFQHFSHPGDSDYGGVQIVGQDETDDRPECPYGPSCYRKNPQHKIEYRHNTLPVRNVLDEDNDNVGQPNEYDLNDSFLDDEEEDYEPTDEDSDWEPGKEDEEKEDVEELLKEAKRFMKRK
UniProt Q9UH17: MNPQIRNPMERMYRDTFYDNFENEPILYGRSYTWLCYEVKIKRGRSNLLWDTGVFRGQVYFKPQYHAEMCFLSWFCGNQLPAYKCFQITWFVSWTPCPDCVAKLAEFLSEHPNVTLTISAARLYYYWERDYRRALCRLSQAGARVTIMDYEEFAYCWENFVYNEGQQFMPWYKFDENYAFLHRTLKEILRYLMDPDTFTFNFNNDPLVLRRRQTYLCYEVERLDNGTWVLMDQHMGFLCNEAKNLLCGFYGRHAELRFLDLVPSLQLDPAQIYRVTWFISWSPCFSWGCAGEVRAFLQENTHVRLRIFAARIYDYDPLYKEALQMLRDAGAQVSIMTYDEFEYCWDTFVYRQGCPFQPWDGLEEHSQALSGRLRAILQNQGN
UniProt Q14CB8: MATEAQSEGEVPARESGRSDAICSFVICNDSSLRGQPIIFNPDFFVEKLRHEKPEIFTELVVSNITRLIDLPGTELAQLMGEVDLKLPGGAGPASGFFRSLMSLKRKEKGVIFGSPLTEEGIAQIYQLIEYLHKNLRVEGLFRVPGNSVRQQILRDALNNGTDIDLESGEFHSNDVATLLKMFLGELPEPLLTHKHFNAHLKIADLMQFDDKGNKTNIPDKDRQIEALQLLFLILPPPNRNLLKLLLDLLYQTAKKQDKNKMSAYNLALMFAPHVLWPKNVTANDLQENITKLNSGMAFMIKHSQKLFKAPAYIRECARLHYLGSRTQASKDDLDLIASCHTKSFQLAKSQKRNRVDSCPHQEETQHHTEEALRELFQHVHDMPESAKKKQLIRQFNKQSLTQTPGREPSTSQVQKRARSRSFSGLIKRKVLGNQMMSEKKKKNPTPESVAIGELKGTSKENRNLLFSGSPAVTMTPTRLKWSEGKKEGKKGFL
UniProt Q9NRY4: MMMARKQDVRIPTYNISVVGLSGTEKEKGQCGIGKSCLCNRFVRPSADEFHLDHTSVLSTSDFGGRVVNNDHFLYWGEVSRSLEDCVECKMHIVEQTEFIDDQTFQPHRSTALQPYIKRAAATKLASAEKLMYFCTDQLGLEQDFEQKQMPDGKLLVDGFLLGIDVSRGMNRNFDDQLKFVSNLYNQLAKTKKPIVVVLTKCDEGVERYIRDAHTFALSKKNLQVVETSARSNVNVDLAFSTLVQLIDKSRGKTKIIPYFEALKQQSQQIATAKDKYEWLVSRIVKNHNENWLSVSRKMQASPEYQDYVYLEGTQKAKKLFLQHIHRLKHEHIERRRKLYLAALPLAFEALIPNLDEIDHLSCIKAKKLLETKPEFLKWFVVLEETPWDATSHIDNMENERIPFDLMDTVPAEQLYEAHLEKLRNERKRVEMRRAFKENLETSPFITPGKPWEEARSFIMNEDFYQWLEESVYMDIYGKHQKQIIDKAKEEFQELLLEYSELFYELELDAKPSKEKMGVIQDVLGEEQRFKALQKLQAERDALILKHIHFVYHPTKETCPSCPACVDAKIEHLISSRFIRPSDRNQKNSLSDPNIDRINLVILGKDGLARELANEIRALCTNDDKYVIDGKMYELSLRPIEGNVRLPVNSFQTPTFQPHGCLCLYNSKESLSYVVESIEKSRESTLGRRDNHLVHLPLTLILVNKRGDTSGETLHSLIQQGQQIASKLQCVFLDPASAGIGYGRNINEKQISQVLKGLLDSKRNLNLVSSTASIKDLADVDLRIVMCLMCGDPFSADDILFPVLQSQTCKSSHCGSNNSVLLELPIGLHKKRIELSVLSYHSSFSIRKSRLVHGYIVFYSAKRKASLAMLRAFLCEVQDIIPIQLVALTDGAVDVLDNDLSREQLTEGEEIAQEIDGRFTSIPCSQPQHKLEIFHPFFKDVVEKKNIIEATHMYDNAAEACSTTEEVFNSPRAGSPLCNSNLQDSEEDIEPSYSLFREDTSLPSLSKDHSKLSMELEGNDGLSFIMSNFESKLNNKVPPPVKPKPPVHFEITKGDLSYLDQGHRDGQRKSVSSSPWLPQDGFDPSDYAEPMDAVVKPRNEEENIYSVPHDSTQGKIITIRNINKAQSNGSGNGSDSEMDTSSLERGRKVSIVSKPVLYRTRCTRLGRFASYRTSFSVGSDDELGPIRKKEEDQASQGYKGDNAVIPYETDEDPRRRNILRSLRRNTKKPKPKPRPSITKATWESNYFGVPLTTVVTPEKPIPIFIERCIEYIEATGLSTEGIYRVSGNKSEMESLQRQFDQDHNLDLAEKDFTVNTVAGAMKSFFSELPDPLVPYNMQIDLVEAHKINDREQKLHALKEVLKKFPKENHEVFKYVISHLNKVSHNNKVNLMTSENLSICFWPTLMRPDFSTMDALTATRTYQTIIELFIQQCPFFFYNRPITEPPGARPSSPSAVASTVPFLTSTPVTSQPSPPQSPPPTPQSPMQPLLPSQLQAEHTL
UniProt Q8N8R7: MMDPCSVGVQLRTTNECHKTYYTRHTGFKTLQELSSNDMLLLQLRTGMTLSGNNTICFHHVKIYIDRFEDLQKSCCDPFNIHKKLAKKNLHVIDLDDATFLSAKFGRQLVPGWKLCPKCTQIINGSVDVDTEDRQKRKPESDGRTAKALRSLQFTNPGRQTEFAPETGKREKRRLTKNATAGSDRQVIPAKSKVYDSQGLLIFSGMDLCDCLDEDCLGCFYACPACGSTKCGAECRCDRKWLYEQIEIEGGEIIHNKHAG
UniProt P36404: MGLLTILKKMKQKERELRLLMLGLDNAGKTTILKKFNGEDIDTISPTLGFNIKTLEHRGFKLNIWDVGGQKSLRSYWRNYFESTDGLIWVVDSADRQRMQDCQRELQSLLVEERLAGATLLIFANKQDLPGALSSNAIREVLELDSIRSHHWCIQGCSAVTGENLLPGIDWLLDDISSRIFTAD
UniProt O00192: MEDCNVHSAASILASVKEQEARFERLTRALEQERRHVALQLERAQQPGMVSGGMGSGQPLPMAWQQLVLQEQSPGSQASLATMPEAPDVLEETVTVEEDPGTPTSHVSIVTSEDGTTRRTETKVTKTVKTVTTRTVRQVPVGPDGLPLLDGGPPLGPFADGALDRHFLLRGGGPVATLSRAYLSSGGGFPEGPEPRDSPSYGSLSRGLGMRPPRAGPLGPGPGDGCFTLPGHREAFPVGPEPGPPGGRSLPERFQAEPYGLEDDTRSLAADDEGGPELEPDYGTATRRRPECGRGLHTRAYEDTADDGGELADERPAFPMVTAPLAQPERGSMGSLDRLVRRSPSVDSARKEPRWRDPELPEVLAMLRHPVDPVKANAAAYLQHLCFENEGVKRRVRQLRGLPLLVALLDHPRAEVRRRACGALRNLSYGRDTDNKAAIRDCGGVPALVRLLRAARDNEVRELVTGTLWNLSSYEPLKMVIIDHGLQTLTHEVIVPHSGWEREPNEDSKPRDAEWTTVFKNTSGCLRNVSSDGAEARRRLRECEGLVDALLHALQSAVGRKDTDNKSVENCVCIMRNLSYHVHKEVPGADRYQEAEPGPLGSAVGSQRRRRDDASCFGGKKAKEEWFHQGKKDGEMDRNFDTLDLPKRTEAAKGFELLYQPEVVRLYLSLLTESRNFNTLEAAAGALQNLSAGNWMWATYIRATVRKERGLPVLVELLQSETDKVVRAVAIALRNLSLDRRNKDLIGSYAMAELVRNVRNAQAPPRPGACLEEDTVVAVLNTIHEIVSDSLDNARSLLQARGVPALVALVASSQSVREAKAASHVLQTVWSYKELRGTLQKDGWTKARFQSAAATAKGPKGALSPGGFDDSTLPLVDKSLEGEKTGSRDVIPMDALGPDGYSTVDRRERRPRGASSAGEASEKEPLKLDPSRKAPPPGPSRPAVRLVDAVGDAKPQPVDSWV

Assays:
Experiment in all cases: log2 fold change, soluble protein after heating vs DMSO (PISA); higher = thermal stabilisation; K562 lysate, 10 uM; active = over 0.2 and 3.5 SD of the protein, either way, in both replicates (recomputed)
vemurafenib = compound: CCCS(=O)(=O)Nc1ccc(F)c(C(=O)c2c[nH]c3ncc(-c4ccc(Cl)cc4)cc23)c1F [vemurafenib]
Procedure, shortened: (§1)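 Log-two fold change in thermal stability relative to solvent controls is reported from duplicates. For each sample, crude K562 extract from dounce-homogenised pellets in PBS pH 7.4 with 1 mM MgCl2, at 1 mg/mL protein, was treated with 10 μM compound for 30 min. Aliquots heated for 3 min across 48°C-58°C were pooled, brought to 0.5% NP-40 at 4°C and cleared at 21,000xg for 90 min. The supernatant was quantified by TMTpro 16plex LC-MS/MS with channel sums equalised.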

[1] = compound: CCCS(=O)(=O)Nc1ccc(F)c(C(=O)c2c[nH]c3ncc(Cl)cc23)c1F
Procedure, shortened: as §1

barasertib = compound: CCN(CCCOc1ccc2c(Nc3cc(CC(=O)Nc4cccc(F)c4)[nH]n3)ncnc2c1)CCOP(=O)(O)O [barasertib]
Procedure, shortened: as §1

[2] = compound: CC[C@@H]1C(=O)N(C)c2cnc(Nc3ccc(C(=O)NC4CCN(C)CC4)cc3OC)nc2N1C1CCCC1
Procedure, shortened: as §1

volasertib = compound: CC[C@@H]1C(=O)N(C)c2cnc(Nc3ccc(C(=O)N[C@H]4CC[C@H](N5CCN(CC6CC6)CC5)CC4)cc3OC)nc2N1C(C)C [volasertib]
Procedure, shortened: as §1

[3] = compound: CCn1c(C(=O)N(C2CC2)C2CC2)cc2c3c(ncn3C)c(Nc3cc(C)n(C)n3)nc21
Procedure, shortened: as §1

[4] = compound: CCn1cc(-c2ccnc3[nH]c(-c4cccc(CN(C)C)c4)cc23)c(-c2ccc(NC(=O)N(C)C)cc2)n1
Procedure, shortened: as §1

[5] = compound: CN1CCC(CNc2ccc3ncc(-c4cccc(OC(F)(F)F)c4)n3n2)CC1
Procedure, shortened: as §1

saracatinib = compound: CN1CCN(CCOc2cc(OC3CCOCC3)c3c(Nc4c(Cl)ccc5c4OCO5)ncnc3c2)CC1 [saracatinib]
Procedure, shortened: as §1

sotrastaurin = compound: CN1CCN(c2nc(C3=C(c4c[nH]c5ccccc45)C(=O)NC3=O)c3ccccc3n2)CC1 [sotrastaurin]
Procedure, shortened: as §1

Measured: log2 fold change

ARL3 (UniProt P36405)
inactive: vemurafenib 0.011 | [1] -0.018 | barasertib -0.029 | [2] 0.013 | volasertib 0.038 | [3] -0.028 | [4] 0.037 | [5] 0.021 | saracatinib -0.017 | sotrastaurin 0.007

ARL2BP (UniProt Q9Y2Y0)
inactive: vemurafenib 0.014 | [1] 0.005 | barasertib -0.019 | [2] 0.005 | volasertib -0.005 | [3] 0.019 | [4] -0.167 | [5] 0.035 | saracatinib -0.047 | sotrastaurin 0.067

APEH (UniProt P13798)
inactive: vemurafenib -0.005 | [1] -0.01 | barasertib -0.017 | [2] 0.022 | volasertib 0.03 | [3] 0.008 | [4] 0.03 | [5] 0.016 | saracatinib -0.001 | sotrastaurin -0.012

ARID4B (UniProt Q4LE39)
inactive: vemurafenib -0.001 | [1] 0.025 | barasertib 0.073 | [2] 0.09 | volasertib -0.017 | [3] 0.012 | [4] 0.067 | [5] -0.036 | saracatinib 0.019 | sotrastaurin -0.005

ASAP1 isoform 2 (UniProt Q9ULH1)
inactive: vemurafenib -0.016 | [1] 0.025 | barasertib -0.023 | [2] 0.012 | volasertib -0.011 | [3] -0.015 | [4] -0.01 | [5] 0.017 | saracatinib 0.007 | sotrastaurin 0.017

ARFRP1 (UniProt Q13795)
inactive: vemurafenib 0.063 | [1] 0.094 | barasertib 0.024 | [2] 0.116 | volasertib -0.06 | [3] -0.022 | [4] 0.076 | [5] -0.06 | saracatinib 0.051 | sotrastaurin 0.047

ARMC6 (UniProt Q6NXE6)
inactive: vemurafenib -0.053 | [1] 0.02 | barasertib 0.071 | [2] -0.136 | volasertib -0.056 | [3] 0.019 | [4] 0.002 | [5] -0.035 | saracatinib 0.013 | sotrastaurin 0.019

ARID3B (UniProt Q8IVW6)
inactive: vemurafenib 0.009 | [1] -0.129 | barasertib 0.014 | [2] 0.001 | volasertib -0.121 | [3] 0.024 | [4] -0.286 | [5] 0.052 | saracatinib 0.028 | sotrastaurin 0.036

ARHGEF6 (UniProt Q15052)
inactive: vemurafenib -0.015 | [1] -0.009 | barasertib 0.136 | [2] -0.001 | volasertib 0.041 | [3] 0.04 | [4] -0.022 | [5] -0.048 | saracatinib 0.074 | sotrastaurin 0.024

ARHGEF7 isoform 5 (UniProt Q14155)
inactive: vemurafenib 0.013 | [1] 0.06 | barasertib 0.052 | [2] 0.057 | volasertib -0.052 | [3] -0.016 | [4] 0.008 | [5] -0.06 | saracatinib 0.027 | sotrastaurin 0.021

ARFIP1 (UniProt P53367)
inactive: vemurafenib 0.208 | [1] -0.003 | barasertib 0.239 | [2] -0.002 | volasertib -0.032 | [3] -0.022 | [4] 1.12 | [5] -0.018 | saracatinib -0.02 | sotrastaurin 0.011

ARFGAP1 (UniProt Q8N6T3)
inactive: vemurafenib 0.063 | [1] -0.01 | barasertib 0.225 | [2] 0.204 | volasertib -0.02 | [3] 0.171 | [4] 0.001 | [5] 0.029 | saracatinib 0.056 | sotrastaurin -0.07

APPL1 (UniProt Q9UKG1)
inactive: vemurafenib 0.032 | [1] 0.02 | barasertib 0.002 | [2] 0.002 | volasertib -0.019 | [3] -0.01 | [4] 0.087 | [5] -0.031 | saracatinib 0.002 | sotrastaurin -0.003

APOC3 (UniProt P02656)
inactive: vemurafenib 0.22 | [2] 0.117 | saracatinib 0.18 | sotrastaurin -0.312

APLF (UniProt Q8IW19)
inactive: vemurafenib 0.029 | [1] 0.052 | barasertib -0.012 | [2] 0.054 | volasertib 0.034 | sotrastaurin -0.002

APOBEC3B (UniProt Q9UH17)
inactive: vemurafenib -0.294 | [2] 0.026 | [3] -0.239 | [4] -0.46 | [5] -0.069 | saracatinib 0.055 | sotrastaurin -0.245

ARHGAP19 isoform 2 (UniProt Q14CB8)
inactive: vemurafenib -0.129 | barasertib -0.099 | [2] 0.089 | [3] -0.027 | saracatinib 0.085 | sotrastaurin -0.033

API5 isoform 2 (UniProt Q9BZZ5)
inactive: vemurafenib -0.048 | [1] 0.081 | barasertib 0.037 | [2] 0.032 | volasertib -0.131 | [3] -0.066 | [4] 0.133 | [5] -0.021 | saracatinib -0.007 | sotrastaurin 0.087

ARHGAP24 (UniProt Q8N264)
inactive: vemurafenib -0.368 | [2] 0.08 | [4] 0.209 | [5] -0.162

ARRB1 isoform 2 (UniProt P49407)
inactive: vemurafenib 0.008 | [1] -0.01 | barasertib 0.064 | [2] -0.037 | volasertib 0.037 | [3] -0.007 | saracatinib -0.152 | sotrastaurin -0.198

ARIH2 (UniProt O95376)
inactive: vemurafenib -0.048 | [1] -0.009 | barasertib -0.016 | [2] 0.032 | volasertib 0 | [3] -0.002 | [4] 0.096 | [5] -0.004 | saracatinib 0.003 | sotrastaurin -0.09

ARSK (UniProt Q6UWY0)
inactive: vemurafenib 0.086 | [1] 0.091 | [2] -0.082 | volasertib -0.094 | [3] -0.058 | [4] -0.005 | [5] 0.153 | saracatinib 0.068

ARHGAP35 (UniProt Q9NRY4)
inactive: vemurafenib 0.029 | [1] -0.011 | barasertib 0.008 | [2] 0.019 | volasertib -0.053 | [3] -0.012 | [4] -0.046 | [5] -0.023 | saracatinib 0.007 | sotrastaurin 0.003

ARHGAP25 isoform 4 (UniProt P42331)
inactive: vemurafenib 0.021 | [1] 0.049 | barasertib 0.081 | [2] -0.045 | volasertib -0.029 | [3] -0.032 | [4] -0.012 | [5] 0.019 | saracatinib -0.034 | sotrastaurin 0.043

ARL14EP (UniProt Q8N8R7)
inactive: vemurafenib -0.055 | barasertib -0.008 | [3] -0.009 | [4] -0.011 | [5] 0.012 | saracatinib 0.081 | sotrastaurin 0.046

ARL2 (UniProt P36404)
inactive: vemurafenib 0.037 | [1] -0.001 | barasertib 0.049 | [2] -0.084 | volasertib -0.018 | [3] -0.004 | [4] -0.033 | [5] 0 | saracatinib -0.001 | sotrastaurin 0.077

ASB1 (UniProt Q9Y576)
inactive: vemurafenib 0.227 | barasertib -0.016 | [2] 0.002 | [3] 0.131 | [4] 0.216 | [5] -0.255 | sotrastaurin 0.08

ARHGAP6 (UniProt O43182)
inactive: vemurafenib 0.074 | [1] 0.038 | barasertib 0.116 | [2] -0.038 | volasertib -0.107 | [3] -0.014 | [4] 0.072 | [5] -0.139 | saracatinib 0.031 | sotrastaurin -0.049

ARVCF (UniProt O00192)
inactive: vemurafenib 0.021 | [1] 0.125 | [2] -0.038 | volasertib 0.101 | [3] -0.011 | [4] -0.025 | [5] 0.12 | saracatinib 0.053 | sotrastaurin 0.034

Copied from the listing (2 entries):
ARL2 (UniProt P36404)
inactive: vemurafenib 0.037 | [1] -0.001 | barasertib 0.049 | [2] -0.084 | volasertib -0.018 | [3] -0.004 | [4] -0.033 | [5] 0 | saracatinib -0.001 | sotrastaurin 0.077

ASB1 (UniProt Q9Y576)
inactive: vemurafenib 0.227 | barasertib -0.016 | [2] 0.002 | [3] 0.131 | [4] 0.216 | [5] -0.255 | sotrastaurin 0.08

Additional results follow.

ARL6IP4 isoform 4 (UniProt Q66PJ3)
inactive: vemurafenib -0.037 | [1] -0.097 | volasertib -0.019 | [4] 0.056 | [5] -0.197
